Tested on: PBMC and endothelial cell co-culture
Experiment: SAg system: PBMC and endothelial cell co-culture stimulated with superantigen
Format: cell-based, human
Details: 24 hr SAg stimulation; non-toxic concentrations

Compound: O=[N+]([O-])c1ccc(-c2nc(-c3ccncc3)c(-c3ccc(F)cc3)[nH]2)cc1 [PD169316]
- activity in the SAg system: retain activity

From patent US20070072246A1, “Cell-based assays for determining drug action” (priority 2003, published 2007)
